According to patent publication US20040191240A1, “Composition and method for nerve regeneration” (priority 2003, published 2004):
No constants are given. Whether binding was seen depends on the method and setting. Some results given as binding are weak or reduced against the parent protein; the word gives no strength. Sequences can lack the tags named with a protein.

Biological target: T1, GST-CAT (GST fused to a fragment of Rho-kinase, aa 6-553) (Homo sapiens (Human)) (UniProt O75116)
T1 sequence: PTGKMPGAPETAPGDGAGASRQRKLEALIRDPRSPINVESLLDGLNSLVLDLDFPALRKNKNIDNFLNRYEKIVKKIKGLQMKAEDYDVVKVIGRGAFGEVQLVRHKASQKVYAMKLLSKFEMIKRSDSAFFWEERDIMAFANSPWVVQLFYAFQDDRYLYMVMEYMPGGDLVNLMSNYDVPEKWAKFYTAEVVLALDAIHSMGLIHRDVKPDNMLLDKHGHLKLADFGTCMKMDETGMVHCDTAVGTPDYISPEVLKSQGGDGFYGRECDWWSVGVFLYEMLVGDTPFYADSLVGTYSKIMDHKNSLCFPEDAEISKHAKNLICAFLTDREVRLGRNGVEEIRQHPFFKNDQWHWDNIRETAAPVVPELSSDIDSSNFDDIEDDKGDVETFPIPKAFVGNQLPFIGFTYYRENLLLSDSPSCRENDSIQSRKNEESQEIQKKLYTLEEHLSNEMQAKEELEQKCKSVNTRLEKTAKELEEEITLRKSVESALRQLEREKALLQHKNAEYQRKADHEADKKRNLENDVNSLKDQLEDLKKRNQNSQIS
Assay: competition: substrate peptide at several concentrations against p21 for GST-CAT

binding: binds
Binder: AKRRRLSSLRA [S6 kinase substrate peptide (…)]
